Results are given in words; binding and its absence hold for the method and conditions named. For some assays here: A result given as binding can be weak or reduced; the word gives no strength. For some assays here: In cells and extracts the contact can be indirect. Sequences can lack the tags named with a protein.
T1: nYFP-ERF109 (Arabidopsis thaliana) (UniProt Q9SZ06)
T1 sequence: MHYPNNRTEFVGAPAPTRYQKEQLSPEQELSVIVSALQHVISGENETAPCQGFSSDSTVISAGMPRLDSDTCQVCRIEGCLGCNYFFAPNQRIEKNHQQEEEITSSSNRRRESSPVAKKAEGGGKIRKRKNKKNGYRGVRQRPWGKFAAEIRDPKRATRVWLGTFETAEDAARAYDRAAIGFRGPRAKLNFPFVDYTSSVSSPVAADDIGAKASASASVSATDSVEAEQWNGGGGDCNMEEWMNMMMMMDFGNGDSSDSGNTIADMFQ

Amino acid sequences for entries named in this document (tags omitted). A change or cut given only in a name is not applied to a line headed by its entry.
UniProt Q9S7M2: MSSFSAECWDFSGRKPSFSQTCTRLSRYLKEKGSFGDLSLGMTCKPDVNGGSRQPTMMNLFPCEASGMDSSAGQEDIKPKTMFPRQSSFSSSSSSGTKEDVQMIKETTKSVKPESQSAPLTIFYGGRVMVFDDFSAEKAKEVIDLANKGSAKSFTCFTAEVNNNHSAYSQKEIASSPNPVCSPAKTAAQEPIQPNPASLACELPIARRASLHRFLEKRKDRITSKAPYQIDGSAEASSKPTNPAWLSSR
UniProt Q9C5K8: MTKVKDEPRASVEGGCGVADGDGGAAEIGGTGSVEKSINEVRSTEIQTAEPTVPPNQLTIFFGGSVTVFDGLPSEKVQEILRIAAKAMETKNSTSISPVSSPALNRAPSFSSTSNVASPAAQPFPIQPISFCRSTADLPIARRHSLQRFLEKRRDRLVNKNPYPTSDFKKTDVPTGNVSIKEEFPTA
UniProt Q9C9E3: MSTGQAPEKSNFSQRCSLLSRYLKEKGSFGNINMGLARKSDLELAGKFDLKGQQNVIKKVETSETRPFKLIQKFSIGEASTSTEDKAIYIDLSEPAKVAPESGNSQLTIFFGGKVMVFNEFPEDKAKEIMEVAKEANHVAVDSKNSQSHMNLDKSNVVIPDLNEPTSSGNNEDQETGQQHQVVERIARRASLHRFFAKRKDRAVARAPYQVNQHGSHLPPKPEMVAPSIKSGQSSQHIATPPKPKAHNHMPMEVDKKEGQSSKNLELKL
UniProt Q9LMA8: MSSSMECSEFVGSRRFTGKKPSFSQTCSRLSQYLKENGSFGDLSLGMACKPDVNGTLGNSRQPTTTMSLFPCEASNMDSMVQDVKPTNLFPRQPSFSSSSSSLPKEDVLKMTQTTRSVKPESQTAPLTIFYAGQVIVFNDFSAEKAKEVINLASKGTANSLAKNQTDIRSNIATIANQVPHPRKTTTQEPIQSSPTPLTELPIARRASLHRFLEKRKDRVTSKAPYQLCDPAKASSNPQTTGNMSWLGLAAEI
UniProt Q9FIP9: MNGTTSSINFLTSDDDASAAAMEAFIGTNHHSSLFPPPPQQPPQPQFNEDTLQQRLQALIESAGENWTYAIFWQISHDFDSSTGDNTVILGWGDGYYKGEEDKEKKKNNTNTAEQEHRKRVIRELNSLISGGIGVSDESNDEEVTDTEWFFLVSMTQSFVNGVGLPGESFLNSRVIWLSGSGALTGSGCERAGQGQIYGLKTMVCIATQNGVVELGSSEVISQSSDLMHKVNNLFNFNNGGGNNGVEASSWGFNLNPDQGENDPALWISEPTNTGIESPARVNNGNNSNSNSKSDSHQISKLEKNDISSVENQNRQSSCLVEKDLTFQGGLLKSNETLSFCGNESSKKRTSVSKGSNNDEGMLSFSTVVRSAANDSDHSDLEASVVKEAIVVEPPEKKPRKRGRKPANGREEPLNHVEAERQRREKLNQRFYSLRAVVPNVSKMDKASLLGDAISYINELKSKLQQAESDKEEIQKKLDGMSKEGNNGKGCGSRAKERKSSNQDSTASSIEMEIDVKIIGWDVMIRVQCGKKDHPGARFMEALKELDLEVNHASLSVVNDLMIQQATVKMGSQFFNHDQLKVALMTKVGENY


Legend:
[1] = target: T1, nYFP-ERF109 (Arabidopsis thaliana); experiment: split reporter
[2] = target: JAZ2 fused to the GAL4 BD (Arabidopsis thaliana) (UniProt Q9S7M2); experiment: two-hybrid
[3] = target: JAZ12 fused to the GAL4 BD (Arabidopsis thaliana) (UniProt Q9C5K8); experiment: two-hybrid
[4] = target: JAZ6 fused to the GAL4 BD (Arabidopsis thaliana) (UniProt Q9C9E3); experiment: two-hybrid
[5] = target: JAZ5 fused to the GAL4 BD (Arabidopsis thaliana); experiment: two-hybrid
[6] = target: JAZ1 fused to the GAL4 BD (Arabidopsis thaliana) (UniProt Q9LMA8); experiment: two-hybrid

Molecule	binding [1]	binding [2]	binding [3]	binding [4]	binding [5]	binding [6]
BPM1 (BiFC fusion) (Arabidopsis thaliana)	binds	–	–	–	–	–
MYC3 fused to the GAL4 AD (from UniProt Q9FIP9 1-592)	–	binds	binds	binds	–	–
MYB51 fused to the GAL4 AD (protein, UniProt O49782 1-352) MVRTPCCKAELGLKKGAWTPEEDQKLLSYLNRHGEGGWRTLPEKAGLKRCGKSCRLRWANYLRPDIKRGEFTEDEERSIISLHALHGNKWSAIARGLPGRTDNEIKNYWNTHIKKRLIKKGIDPVTHKGITSGTDKSENLPEKQNVNLTTSDHDLDNDKAKKNNKNFGLSSASFLNKVANRFGKRINQSVLSEIIGSGGPLASTSHTTNTTTTSVSVDSESVKSTSSSFAPTSNLLCHGTVATTPVSSNFDVDGNVNLTCSSSTFSDSSVNNPLMYCDNFVGNNNVDDEDTIGFSTFLNDEDFMMLEESCVENTAFMKELTRFLHEDENDVVDVTPVYERQDLFDEIDNYFG	–	no binding	no binding	no binding	no binding	no binding
MYB34 fused to the GAL4 AD (protein, UniProt O64399 1-295) MVRTPCCKEEGIKKGAWTPEEDQKLIAYLHLHGEGGWRTLPEKAGLKRCGKSCRLRWANYLRPDIKRGEFSPEEDDTIIKLHALKGNKWAAIATSLAGRTDNEIKNYWNTNLKKRLKQKGIDAITHKPINSTGQTGFEPKVNKPVYSSGSARLLNRVASKYAVELNRDLLTGIISGNSTVAEDSQNSGDVDSPTSTLLNKMAATSVLINTTTTYSGFSDNCSFTDEFNEFFNNEEISDIYTTVDNFGFMEELKSILSYGDASAGVIENSPEVNVADAMEFIDSWNEDDNMVGVFV	–	no binding	no binding	no binding	no binding	no binding

From article doi:10.1101/643494
